These results are taken from article PMC7819943, “Rice protein-binding microarrays: a tool to detect cis-acting elements near promoter regions in rice”.

Sequences of proteins named here, by UniProt entry; tags and fusion partners are left off.
UniProt Q0JBA9, entry or part of it: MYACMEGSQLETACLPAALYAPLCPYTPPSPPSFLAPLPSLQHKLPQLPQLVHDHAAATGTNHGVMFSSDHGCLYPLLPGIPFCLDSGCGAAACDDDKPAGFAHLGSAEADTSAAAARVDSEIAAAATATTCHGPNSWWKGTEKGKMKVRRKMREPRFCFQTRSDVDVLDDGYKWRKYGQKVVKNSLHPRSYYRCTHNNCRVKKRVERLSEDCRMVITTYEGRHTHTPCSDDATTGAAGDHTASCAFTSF

The other results are listed elsewhere or left out.

The test addresses OsWRKY34 (Oryza sativa, UniProt Q0JBA9 1-250). Nature of the test: protein-binding microarray (RPBM); PBS, 2% BSA, 51.3 ng/ul salmon testes DNA, 50 uM zinc acetate, 200 nM TF, 25 C, 1 h; high values mean tight binding. Particulars: protein: recombinant; tags: N-terminal polyhistidine and DsRed monomer fusion (pET32a); label: CyDye5-dUTP incorporated in the synthesized complementary strand; 3' TTTTT single-stranded linker to array surface; dsDNA, one strand shown. An outline of the steps:
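Binding signal is defined as the fluorescence intensity of each feature in arbitrary units, read on an Axon 4000B scanner. Transcription factors with N-terminal polyhistidine and DsRed fusions came from E. coli BL21-CodonPlus and were purified on Ni–NTA. They were incubated at 200 nM for 1 h at 25 °C on a custom Agilent array that had been made double-stranded with Cy5-dUTP, with 50 µM zinc acetate present, and the array was washed.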
Regarding “AATAGTACGTTACCATCCTCCATATCATCGCTGACGCTTCCGGAGTCACCTAGTGCAG”, the binding signal is 8110 fluorescence intensity (a.u.). Then “CTCAGCTCGCTTCATCACCTTCCACTCAGTCAATCGCAGCCGGAGTCACCTAGTGCAG”, with 9310 fluorescence intensity (a.u.). For “AGATCGCTCTTTTGTTGCTGGATTTCTGTTTATTCCGATCCGGAGTCACCTAGTGCAG” the value was 8770 fluorescence intensity (a.u.); for “GATATTGATATGTACAAGTGTATGGACTGTTTTGTTTTGTCGGAGTCACCTAGTGCAG”, 9380 fluorescence intensity (a.u.); for “ACCACCACTACCTCGAATCAGCTCATCGTCACCATTTTTCCGGAGTCACCTAGTGCAG”, 9550 fluorescence intensity (a.u.). As for “AAGCAAGACCCCATCAATCAATCATCGGATACCACCTCTCCGGAGTCACCTAGTGCAG”, the binding signal was 8630 fluorescence intensity (a.u.). Then “GGTCGACCGCCGCGCCGTCGCCGCCGCCATTCCGCCCACGCGGAGTCACCTAGTGCAG”, with 9560 fluorescence intensity (a.u.). For “CGCCGCCTGCCCCTGCGCCTGCAGCCTCTGCGCCTCCTGCCGGAGTCACCTAGTGCAG”, the binding signal was 9380 fluorescence intensity (a.u.). Then “CTTTTGATCATTTCCCACTCGTTTATTGTATTTGGAGTAACGGAGTCACCTAGTGCAG”, with 8300 fluorescence intensity (a.u.); and “GTCGTCTCATTGGTCAACACCACTTAGGATCCCCACGAGCCGGAGTCACCTAGTGCAG”, with 8550 fluorescence intensity (a.u.). Then “TTGGTATGTTATATACCTATTTTTATTGTGGTAACTTGACCGGAGTCACCTAGTGCAG”, with 8740 fluorescence intensity (a.u.); and “ATCGCTGGCTTATCATACTCTATTATACCTGCTCTAAGGACGGAGTCACCTAGTGCAG”, with 10000 fluorescence intensity (a.u.); and “GCCGCGGGACGTCACGCACGCCGACGCACGCTCCCGGCGCCGGAGTCACCTAGTGCAG”, with 8090 fluorescence intensity (a.u.).

With “AACAGGGAATGCTTTATATTTGTACTTTTGGTCCTGTTAACGGAGTCACCTAGTGCAG”, the binding signal is 8810 fluorescence intensity (a.u.). For “ATTAACTCTACTTTTTCATCATCCACCCACCCACAAGGACCGGAGTCACCTAGTGCAG” the value was 8820 fluorescence intensity (a.u.). Then “TCCTGTCCCTCGTGTTTGTGTCACGTTCGATTCTCCCAAGCGGAGTCACCTAGTGCAG”, with 9280 fluorescence intensity (a.u.). For “TCCATCTCCTAGCTTTCCTTCCCTTTCTCTCGCTGCTGCTCGGAGTCACCTAGTGCAG”, the binding signal is 10500 fluorescence intensity (a.u.). For “AATAGTACGCCCTGTGCATGCCATTCCTTTCGAGTAGTCACGGAGTCACCTAGTGCAG”, the binding signal was 9450 fluorescence intensity (a.u.). On to “GGTTTTTATCTTTTCTTTTTTTCTTTTTAATTCGGAACCGCGGAGTCACCTAGTGCAG”, for which the binding signal is 10100 fluorescence intensity (a.u.).

Consider “CGAGCACCTTCACTTGCCCGGCCGGCACCAACTACCAGGTCGGAGTCACCTAGTGCAG”, for which the binding signal was 9810 fluorescence intensity (a.u.). “GGTCACCCAAAACAACGTGTTTAATTACTTCCTTTTCTTTCGGAGTCACCTAGTGCAG”: the binding signal is 8040 fluorescence intensity (a.u.).

Consider “ACCATCTCTATTCTTCTTCTGCACCACCATCGCCAGCAGCCGGAGTCACCTAGTGCAG”, for which the binding signal was 11500 fluorescence intensity (a.u.). For “GACTTTTTAGCACATGTTTAACCGTTCGTCTTATTCAAAACGGAGTCACCTAGTGCAG” the value was 12100 fluorescence intensity (a.u.).

As to “CGTCGGAGCCAACATTATTTTTCTGTTTCCTGTCACCGTCCGGAGTCACCTAGTGCAG”, the binding signal was 8980 fluorescence intensity (a.u.). For “TCTCATCTTAGCTTGTCCATTGTCCATATACACTCCTTGCCGGAGTCACCTAGTGCAG” the value was 8240 fluorescence intensity (a.u.).

In the case of “TTTTGCGCTCTGCTTTGCTAGCTCGCTTTCTCCGGTGACCCGGAGTCACCTAGTGCAG”, the binding signal was 8920 fluorescence intensity (a.u.). On to “CCCTTTTTTTGATTTTTAACGCCTTTTCTAAATTATTTTTCGGAGTCACCTAGTGCAG”, for which the binding signal is 8390 fluorescence intensity (a.u.). “ATTCCTATCAAAATCCTACGTTTTTTCTAATCCTACGTTTCGGAGTCACCTAGTGCAG”: the binding signal is 9530 fluorescence intensity (a.u.). Regarding “TACATATACGTATCTCTCACCCTTGCACTGCGCCGGTACACGGAGTCACCTAGTGCAG”, the binding signal is 9080 fluorescence intensity (a.u.).

On to “TTCATTGCTTCATTGCTCCATAGGAATGTTGGTATTCATTCGGAGTCACCTAGTGCAG”, for which the binding signal was 8500 fluorescence intensity (a.u.). For “GATCTATGTTGCTGTTTTTGCATTGTCATTCGTTTGCTCTCGGAGTCACCTAGTGCAG” the value was 12000 fluorescence intensity (a.u.); for “TTTTTCGCCCTTTACAGTCTTCGTCTTCGCTACTCGGCAGCGGAGTCACCTAGTGCAG”, 9690 fluorescence intensity (a.u.). For “AGTTGGCTTGCATTTTTTTCTTCGTGTGATAGTGTATTAACGGAGTCACCTAGTGCAG” the value was 8990 fluorescence intensity (a.u.); for “TACATCATGCGTCGCTGCGTCACCATGCTCGTCTGCTGGCCGGAGTCACCTAGTGCAG”, 8220 fluorescence intensity (a.u.).

For “CTCGCGTTGAATTTGGCTAACTTAGTGTAATAATCGCGCACGGAGTCACCTAGTGCAG”, the binding signal is 8240 fluorescence intensity (a.u.). “AACATGTGTTTTTAGTTAGTTTGTTAATGGAGGTTTTGTTCGGAGTCACCTAGTGCAG”: the binding signal is 8790 fluorescence intensity (a.u.).

Take “TCTCCTCCTAGCTTCACTCTCTCCGCTGCTGCTGCTGCGTCGGAGTCACCTAGTGCAG”: the binding signal is 9800 fluorescence intensity (a.u.). As to “ATAACTACCTGCACAATTAACCATGCCCGTTTTGTTCTGCCGGAGTCACCTAGTGCAG”, the binding signal was 8480 fluorescence intensity (a.u.). Then “ATAGCTTCTGGTTTCCGAATATATCTTCTTTTCAAACAGTCGGAGTCACCTAGTGCAG”, with 10800 fluorescence intensity (a.u.). On to “TGCCACCTCGCCGCTAGCTCGCTCTCGCGGTCTCGCCCTCCGGAGTCACCTAGTGCAG”, for which the binding signal is 8160 fluorescence intensity (a.u.). Consider “TTTTTCTTTCCCCTGTACTGTAGGAGTACTATTTACACAACGGAGTCACCTAGTGCAG”, for which the binding signal was 8440 fluorescence intensity (a.u.). For “TTCTTTCACGCGCGCTCGCCACCGCCCTCCTTGCTCGTCCCGGAGTCACCTAGTGCAG” the value was 14100 fluorescence intensity (a.u.).
